These results are taken from doi:10.1101/828806.

Chains of the proteins cited; added tags and fusions are not shown. Lines headed by an entry give the natural chain unless they say otherwise; changes in a name come on top.
UniProt P18206: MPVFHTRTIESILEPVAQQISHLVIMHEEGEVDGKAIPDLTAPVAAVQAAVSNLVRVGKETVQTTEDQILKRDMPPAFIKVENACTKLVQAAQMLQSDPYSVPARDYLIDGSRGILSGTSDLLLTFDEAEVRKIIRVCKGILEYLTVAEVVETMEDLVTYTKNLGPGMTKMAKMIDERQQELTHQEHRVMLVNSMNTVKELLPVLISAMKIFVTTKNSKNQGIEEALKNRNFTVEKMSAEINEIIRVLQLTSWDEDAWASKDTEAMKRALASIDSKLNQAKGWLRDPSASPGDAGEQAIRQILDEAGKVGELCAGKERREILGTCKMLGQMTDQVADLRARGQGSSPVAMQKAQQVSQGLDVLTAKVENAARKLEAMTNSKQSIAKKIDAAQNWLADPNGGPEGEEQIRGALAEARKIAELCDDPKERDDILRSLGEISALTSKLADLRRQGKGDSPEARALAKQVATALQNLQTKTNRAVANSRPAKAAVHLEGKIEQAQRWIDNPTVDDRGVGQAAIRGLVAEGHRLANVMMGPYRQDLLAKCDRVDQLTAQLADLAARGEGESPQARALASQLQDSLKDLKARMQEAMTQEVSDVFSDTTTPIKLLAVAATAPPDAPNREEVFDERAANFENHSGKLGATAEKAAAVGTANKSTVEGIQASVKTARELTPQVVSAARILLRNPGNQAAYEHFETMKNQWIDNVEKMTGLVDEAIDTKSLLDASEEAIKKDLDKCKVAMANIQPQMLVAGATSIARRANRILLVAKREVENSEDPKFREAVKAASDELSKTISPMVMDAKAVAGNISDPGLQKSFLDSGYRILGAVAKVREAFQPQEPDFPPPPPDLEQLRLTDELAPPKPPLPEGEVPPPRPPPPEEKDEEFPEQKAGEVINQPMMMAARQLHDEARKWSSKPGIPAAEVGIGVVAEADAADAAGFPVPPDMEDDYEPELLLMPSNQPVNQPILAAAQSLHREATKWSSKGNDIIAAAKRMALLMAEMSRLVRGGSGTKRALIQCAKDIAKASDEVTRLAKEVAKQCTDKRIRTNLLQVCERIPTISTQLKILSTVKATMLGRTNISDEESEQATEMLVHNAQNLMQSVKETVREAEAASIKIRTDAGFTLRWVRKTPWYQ
UniProt Q9UGP4: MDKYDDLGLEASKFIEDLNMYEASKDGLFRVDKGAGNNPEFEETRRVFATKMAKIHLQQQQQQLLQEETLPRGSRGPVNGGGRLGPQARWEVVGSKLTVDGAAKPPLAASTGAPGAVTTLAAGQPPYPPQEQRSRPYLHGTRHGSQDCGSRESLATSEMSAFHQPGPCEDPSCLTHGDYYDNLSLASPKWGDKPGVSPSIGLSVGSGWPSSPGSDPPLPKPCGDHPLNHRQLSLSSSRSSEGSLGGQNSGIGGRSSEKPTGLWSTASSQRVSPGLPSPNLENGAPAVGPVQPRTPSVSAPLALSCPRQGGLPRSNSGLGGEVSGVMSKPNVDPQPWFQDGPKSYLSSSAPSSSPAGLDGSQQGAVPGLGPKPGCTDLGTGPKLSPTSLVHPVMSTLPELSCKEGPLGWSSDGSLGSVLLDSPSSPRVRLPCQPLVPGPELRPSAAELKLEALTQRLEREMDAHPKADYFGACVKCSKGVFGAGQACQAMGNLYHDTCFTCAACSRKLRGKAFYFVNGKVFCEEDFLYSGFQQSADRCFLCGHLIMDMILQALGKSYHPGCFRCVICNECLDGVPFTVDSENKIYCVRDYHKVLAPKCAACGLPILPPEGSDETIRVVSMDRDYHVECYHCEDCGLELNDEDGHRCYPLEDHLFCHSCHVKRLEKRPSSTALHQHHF

No constants are given. Whether binding was seen depends on the method and setting. Binding seen in cells or lysates may run through a third protein. Binding calls can cover weak binding; strength is not graded here.

The test concerns the target vinculin-AcGFP (human) (UniProt P18206). The test is described as follows: co-IP.

Turning to “Limd1-mCherry (from UniProt Q9UGP4 1-676)”, the binding result was “binds”.
